Test results from article PMC3135610.
No constants are given. Whether binding was seen depends on the method and setting. In cells and extracts the contact can be indirect. Some binding calls cover weakened binding; strength is not graded here. For some assays here: Where a sequence is shown, tags or fusion partners need not be part of it.

The chains behind the UniProt entries cited, without tags or fusion partners. Where a name states a change or a piece, a line headed by the entry shows the natural chain unless it says otherwise. Residues count along the entry.
UniProt P11940: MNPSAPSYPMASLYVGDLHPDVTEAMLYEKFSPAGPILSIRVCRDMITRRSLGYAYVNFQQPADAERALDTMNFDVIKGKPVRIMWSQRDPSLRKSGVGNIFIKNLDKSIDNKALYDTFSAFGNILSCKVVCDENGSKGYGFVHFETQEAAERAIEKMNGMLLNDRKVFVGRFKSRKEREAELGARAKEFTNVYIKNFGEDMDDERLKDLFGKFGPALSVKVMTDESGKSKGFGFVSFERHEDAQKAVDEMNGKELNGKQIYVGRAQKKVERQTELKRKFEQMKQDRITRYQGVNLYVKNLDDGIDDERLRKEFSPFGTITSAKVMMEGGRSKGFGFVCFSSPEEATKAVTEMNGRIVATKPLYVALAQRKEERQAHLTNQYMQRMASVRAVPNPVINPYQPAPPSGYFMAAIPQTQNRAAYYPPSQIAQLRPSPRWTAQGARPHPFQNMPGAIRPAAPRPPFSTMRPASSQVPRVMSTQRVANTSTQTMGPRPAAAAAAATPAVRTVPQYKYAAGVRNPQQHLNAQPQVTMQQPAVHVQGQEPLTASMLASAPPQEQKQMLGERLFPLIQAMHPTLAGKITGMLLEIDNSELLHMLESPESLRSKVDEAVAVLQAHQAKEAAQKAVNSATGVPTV
GST-PABP^554–636: residues 554-636 of P11940

What was measured:
GST-PABP^554–636 = GST-PABP^554–636 (UniProt P11940); test: pull-down; recombinant GST-PABP 554-636 incubated with crude HEK293 cell lysate, glutathione-sepharose beads, eluates immunoblotted; only the target purified
[1] = molecular target: T1, GST-HELZ^1023–1199 (human) (UniProt P42694); test: pull-down; 0.5 µg recombinant GST fusion protein with 2.5 mg total HeLa cell extract (normoxic cells; also hypoxic cells) and glutathione-sepharose beads, 3 hours at 4°C, buffer A (20 mM Hepes/KOH pH 7.4, 100 mM KCl, 0.1% NP-40, 0.5 mM EDTA, 10% glycerol), ten washes, eluates immunoblotted; only the target purified
T1 sequence: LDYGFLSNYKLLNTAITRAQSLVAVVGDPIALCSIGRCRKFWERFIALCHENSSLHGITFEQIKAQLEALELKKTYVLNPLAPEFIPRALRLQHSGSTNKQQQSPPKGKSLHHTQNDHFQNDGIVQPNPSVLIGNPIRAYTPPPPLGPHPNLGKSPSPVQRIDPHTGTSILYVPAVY

Substance: endogenous HELZ (from UniProt P42694-1 1-1942)
- binding (GST-PABP^554–636): binds

Substance: poly(A)-binding protein (PABP) (from UniProt P11940 1-636)
- binding [1]: binds
